The test concerns nude mice, HT29 intrarenal xenograft, tumor weight T/C. In words: NCI In Vivo Anticancer Drug Screen. Data for tumor model HT29;CX-1 Human Adenocarcinoma (MER+) (intrarenal inoculation) in NU/NU Swiss (nude) mice. Particulars: T/C endpoint: mean tumor weight change, higher T/C = larger tumour. A digest of the protocol:
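Endpoint measured as tumor size or survival; ratio reported is treated group over vehicle controls.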

Setting [1] is: dose: 1200.0 mg/kg/injection, schedule: Q04DX004 (sc), vehicle: saline with Tween-80.
Where [2] appears, read: dose: 400.0 mg/kg/injection, schedule: Q04DX004 (sc), vehicle: Klucel (hydroxypropylcellulose) (HPC).
The mark [3] stands for this setting: dose: 600.0 mg/kg/injection, schedule: Q04DX004 (sc), vehicle: saline with Tween-80.
[4] abbreviates: dose: 150.0 mg/kg/injection, schedule: Q04DX004 (sc), vehicle: Klucel (hydroxypropylcellulose) (HPC).

The list does not hold the whole screen: it gathers tests that were run many times, whatever their T/C, doses with no T/C, and many T/C values between a quarter and a half above the control. Other doses and runs of a compound stand elsewhere. T/C gives the treated animals as a percentage of the vehicle group. Schedules are NCI's codes, taken here to give the interval after Q, in days (D) or hours (H), and the number of doses after X. Some doses were run more than once; the results are listed from low to high. Some T/C values carry the count of animals alive at the toxicity check (mostly the fifth day); without a count, all were alive then. Some doses have a count of surviving animals in place of a T/C: the source files T/C as zero there, which appears to mark a toxic dose or a test without result, not a measured value. Counts of survivors are from the toxicity check (mostly the fifth day) where no day follows; animals may have died later.

The results in this text go back to PubChem BioAssay AID206 (DTP/NCI, 2004).

For the compound `Cc1cc(NS(=O)(=O)c2ccc(N=Nc3cc(N=Nc4ccc(S(=O)(=O)Nc5cc(C)nc(C)n5)cc4)c4c(NC(=O)C(Cl)Cl)cccc4c3OC(=O)C(Cl)Cl)cc2)nc(C)n1` (tested in a mixture with another compound), the T/C reads like this: (dose: 300.0 mg/kg/injection, schedule: Q04DX004 (sc), vehicle: suspension in saline, evaluated on day 15) 130 % of control; (dose: 600.0 mg/kg/injection, schedule: Q04DX004 (sc), vehicle: suspension in saline, evaluated on day 15) 146 % of control.

Take `CN(C)C(=O)SC1=C(c2c(Cl)cccc2Cl)C(=O)c2ccccc21`: the T/C reads like this: (dose: 1200.0 mg/kg/injection, schedule: Q04DX004 (sc), vehicle: Klucel (hydroxypropylcellulose) (HPC), evaluated on day 15) 148 % of control; (dose: 2400.0 mg/kg/injection, schedule: Q04DX004 (sc), vehicle: Klucel (hydroxypropylcellulose) (HPC), evaluated on day 15) 136 % of control.

`CN=S(=O)(OCCCCCOS(=O)(=NC)c1ccccc1)c1ccccc1` (configuration not stated): under setting [1], the survivor count was 0 of 6 on day 15.

Consider `C[C@@](O)(/C=C/[C@H]1CC=CC(=O)O1)[C@@H](C[C@@H](O)\C=C/C=C\C=C\CO)OP(=O)(O)O`, for which the survivor count (dose: 75.0 mg/kg/injection, schedule: Q04DX004 (sc), vehicle: saline) is listed as 0 of 6 on day 15.

With `COc1cc(C(=O)c2cc3c(cc2C)OCO3)cc(OC)c1OC`, the T/C (dose: 150.0 mg/kg/injection, schedule: Q04DX004 (sc), vehicle: Klucel (hydroxypropylcellulose) (HPC), evaluated on day 15) is 131 % of control.

For the compound `Cc1cc2c(c3oc(C4(C)OC4C4OC4C)cc(=O)c13)C(=O)c1c(O)c(C3CC(C)(N(C)C)C(O)C(C)O3)cc(C3CC(N(C)C)C(O)C(C)O3)c1C2=O` (configuration not stated), the survivor count was 0 of 3 on day 11 (dose: 0.25 mg/kg/injection, schedule: Q01DX010 (sc), vehicle: saline); 0 of 3 on day 11 (dose: 0.5 mg/kg/injection, schedule: Q01DX010 (sc), vehicle: saline); 0 of 2 on day 11 (dose: 1.0 mg/kg/injection, schedule: Q01DX010 (sc), vehicle: saline).

`CC(=O)OCC1OC(OC2=C(CC=C(C)C)C(=O)c3ccccc3C2=O)C(OC(C)=O)C(OC(C)=O)C1OC(C)=O` (configuration not stated): under setting [2], the survivor count was 2 of 6 on day 15.

For the compound `CN(C)N=Nc1ccccc1`, the survivor count (dose: 200.0 mg/kg/injection, schedule: Q04DX004 (sc), vehicle: Klucel (hydroxypropylcellulose) (HPC)) is 2 of 6 on day 15.

With `COC(=O)NC1C(C)OC(OC2C/C=C(/C)C3C=CC4C(OC5CC(OC6CCC(OC7CC(O)C(OC8CCC(O)C(C)O8)C(C)O7)C(C)O6)C(OC(C)=O)C(C)O5)C(C)CC(C)C4C3(C)/C(O)=C3/C(=O)OC4(CC(C=O)=CC(O)C4/C=C\2C)C3=O)CC1(C)[N+](=O)[O-]` (configuration not stated), the survivor count (dose: 100.0 mg/kg/injection, schedule: Q04DX004 (sc), vehicle: other) is 0 of 6 on day 15.

`O=C1CN(Cc2ccc3c(c2)OCO3)NO1`: the survivor count by setting is: under setting [3], 3 of 6 on day 15; under setting [1], 0 of 6 on day 15.

Regarding `c1ccc([P+](c2ccccc2)(c2ccccc2)c2ccccc2)cc1`, the survivor count (dose: 40.0 mg/kg/injection, schedule: Q04DX004 (sc), vehicle: saline) is 0 of 6 on day 15.

In the case of `Nc1n[nH]c(N)n1`, the survivor count (dose: 1600.0 mg/kg/injection, schedule: Q01DX010 (sc), vehicle: saline) was 0 of 3 on day 20.

As to `CC(=O)CC(=O)CCC(=O)O`, under “dose: 300.0 mg/kg/injection, schedule: Q04DX004 (sc), vehicle: saline, evaluated on day 15”, the T/C was 128 % of control.

Turning to `CCCCC1CCCCCCc2[nH]c(/C=C3\N=C(c4ccc[nH]4)C=C3OC)cc21` (configuration not stated), the survivor count runs as follows: (dose: 32.0 mg/kg/injection, schedule: Q04DX004 (sc), vehicle: saline with Tween-80) 3 of 6 on day 15; (dose: 64.0 mg/kg/injection, schedule: Q04DX004 (sc), vehicle: saline with Tween-80) 0 of 6 on day 15; (dose: 128.0 mg/kg/injection, schedule: Q04DX004 (sc), vehicle: saline with Tween-80) 0 of 6 on day 15.

Consider `CN=C(N)N/N=C(\C)c1ccc2oc3ccc(/C(C)=N/NC(N)=NC)cc3c2c1`, for which the survivor count under setting [3] is listed as 0 of 6 on day 15.

For the compound `CCS/C(SC)=C(/c1ccccc1)[P+](c1ccccc1)(c1ccccc1)c1ccccc1`, the T/C (dose: 37.5 mg/kg/injection, schedule: Q04DX004 (sc), vehicle: Klucel (hydroxypropylcellulose) (HPC), evaluated on day 15) was 125 % of control [3 of 4 alive on day 15]. Moreover, the survivor count by setting is: (dose: 75.0 mg/kg/injection, schedule: Q04DX004 (sc), vehicle: Klucel (hydroxypropylcellulose) (HPC)) 3 of 6 on day 15; under setting [4], 0 of 6 on day 15.

With `COC(=O)C12OCC34C(CC5C(C)=CC(=O)C(O)C5(C)C3C(O)C1O)OC(=O)C(OC(=O)CC(C)C)C24` (configuration not stated), the survivor count is, setting by setting: (dose: 6.0 mg/kg/injection, schedule: Q04DX004 (sc), vehicle: saline + alcohol) 1 of 6 on day 15; (dose: 12.0 mg/kg/injection, schedule: Q04DX004 (sc), vehicle: saline + alcohol) 0 of 6 on day 15.

Take `CCc1ccccc1N1CCN(C(=O)c2cc(OC)c(OC)c(OC)c2)CC1`: the survivor count (dose: 2400.0 mg/kg/injection, schedule: Q04DX004 (sc), vehicle: Klucel (hydroxypropylcellulose) (HPC)) was 3 of 6 on day 15.

With `O=C(O)/C=C/C(=O)Nc1ccc(Cl)c(Cl)c1`, the survivor count under setting [2] is 3 of 6 on day 15.

For the compound `COc1cccc2c1C(=O)c1c(O)c3c(c(O)c1C2=O)C[C@@](O)(C(C)=O)C[C@@H]3OC1CC(N(Cc2ccccc2)Cc2ccccc2)C(O)C(C)O1` (some centres not stated), the survivor count is 1 of 3 on day 20 (dose: 50.0 mg/kg/injection, schedule: Q01DX010 (sc), vehicle: water); 0 of 3 on day 20 (dose: 100.0 mg/kg/injection, schedule: Q01DX010 (sc), vehicle: water); 0 of 3 on day 20 (dose: 200.0 mg/kg/injection, schedule: Q01DX010 (sc), vehicle: water); 1 of 3 on day 15 (dose: 250.0 mg/kg/injection, schedule: Q04DX004 (sc), vehicle: water).

For the compound `CN(C)C=O`, the T/C (dose: 400.0 mg/kg/injection, schedule: Q01DX010 (sc), vehicle: saline, evaluated on day 11) was 129 % of control.

Regarding `CC[C@@]1(O)C[C@H](OC2CC(N(C)C)C(OC3CC(O)C(OC4CCC(=O)C(C)O4)C(C)O3)C(C)O2)c2c(cc3c(c2O)C(=O)c2c(O)ccc(O)c2C3=O)[C@H]1C(=O)OC` (some centres not stated), the survivor count reads like this: (dose: 12.0 mg/kg/injection, schedule: Q04DX004 (sc), vehicle: water) 0 of 6 on day 15; (dose: 24.0 mg/kg/injection, schedule: Q04DX004 (sc), vehicle: water) 0 of 6 on day 15.

Consider `NC(=S)N/N=C/c1ccc(OC(=O)COc2ccc(Cl)cc2)cn1`, for which the T/C (dose: 150.0 mg/kg/injection, schedule: Q04DX004 (sc), vehicle: saline with Tween-80, evaluated on day 15) was 136 % of control. Further, the survivor count under setting [1] is reported as 3 of 6 on day 15.

Consider `CN1CCN(CCCN2c3ccccc3Sc3ccc(C(F)(F)F)cc32)CC1`, for which the T/C runs as follows: (dose: 50.0 mg/kg/injection, schedule: Q01DX010 (sc), vehicle: saline, evaluated on day 11) 55, 67, 105 % of control; (dose: 100.0 mg/kg/injection, schedule: Q01DX010 (sc), vehicle: saline, evaluated on day 11) 74, 75, 87 % of control; (dose: 200.0 mg/kg/injection, schedule: Q01DX010 (sc), vehicle: saline, evaluated on day 11) 17 [2 of 2 alive on day 11], 21, 35 % of control. Also, the survivor count was 1 of 3 on day 11 (dose: 100.0 mg/kg/injection, schedule: Q01DX010 (sc), vehicle: saline); 3 of 5 on day 11 (dose: 200.0 mg/kg/injection, schedule: Q01DX010 (sc), vehicle: saline); 0 of 3 on day 11, 0 of 6 on day 11, 1 of 6 on day 11 (dose: 400.0 mg/kg/injection, schedule: Q01DX010 (sc), vehicle: saline).

Consider `Nc1ncnc2c1nnn2C1OC(CO)C(O)C1O` (configuration not stated), for which the survivor count under setting [4] was 2 of 6 on day 15; the survivor count (dose: 300.0 mg/kg/injection, schedule: Q04DX004 (sc), vehicle: Klucel (hydroxypropylcellulose) (HPC)) is 1 of 6 on day 15; the survivor count (dose: 600.0 mg/kg/injection, schedule: Q04DX004 (sc), vehicle: Klucel (hydroxypropylcellulose) (HPC)) is on record as 0 of 6 on day 15.
